Series [1] deals with spleen cells (lymphocytes) stimulated with concanavalin A. The conditions noted are these: DCL versus loratadine, description.
Series [2] shares this test system. Kind of series: cells. Conditions: Mus musculus, Lymphocyte, read-out: Inhibition of Concanavalin A Induced Stimulation of Lymphocytes (IC50).

Consider one compound from patent US7214684B2, “Methods for the treatment of allergic rhinitis” (Sepracor Inc., priority 1994, dated 2007).

On to `Clc1ccc2c(c1)CCc1cccnc1C2=C1CCNCC1` [DCL, 8-chloro-6,11-dihydro-11-(4-piperidylidene)-5H-benzo[5,6]cyclohepta[1,2-b]pyridine], for which, in series [1], the “activity in tumor promotion compared to loratadine (statement in words)” value was “five to seven times less active”. In addition, the IC50 in series [2] is 5.6 µM.

One may read the IC50 as the midpoint of a concentration-inhibition curve.
